Binding data for 1 substance are collected here from article PMC8469580.

Chains of the proteins cited; added tags and fusions are not shown.
UniProt Q9UI95: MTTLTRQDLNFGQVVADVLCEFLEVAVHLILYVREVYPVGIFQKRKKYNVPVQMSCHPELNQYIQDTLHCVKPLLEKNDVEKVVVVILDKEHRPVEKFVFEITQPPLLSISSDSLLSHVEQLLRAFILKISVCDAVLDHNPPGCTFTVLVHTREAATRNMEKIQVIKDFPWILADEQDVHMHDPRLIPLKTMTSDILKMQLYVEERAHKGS

In this experiment the target is EspF variant from EPEC O127:H6, protein A fusion (LUMIER) (Escherichia coli EPEC O127:H6) (UniProt B7UM88). In words: LUMIER; protein A fusion and Renilla luciferase fusion transiently expressed in Caco-2 cells; lysate (20 mM Tris pH 7.5, 250 mM NaCl, 1% Triton X-100, 10 mM EDTA, 10 mM DTT); protein A fusion held on IgG-coated magnetic beads, on ice; luciferase activity on washed beads, z-scores; inverse combinations also tested.

These are yes or no findings as the source states them, for the method shown. A result given as binding can be weak or reduced; the word gives no strength.

With “Mitotic Arrest-Deficient 2 Like 2 (MAD2L2), Renilla luciferase fusion (LUMIER) (from UniProt Q9UI95 1-211)”, the binding result is “binds”.
